Source: patent US6420384B2, “Proton pump inhibitors” (Ariad Pharmaceuticals, Inc., priority 1999, dated 2002)

Details: TSK-Gel HA 1000 HPLC column; linear gradient 10 mM to 500 mM sodium phosphate, 0.15 N NaCl, pH 6.8; corrected using two reference compounds
From the text: Hydroxyapatite is the principal mineral component of bone. Hydroxyapatite adsorption chromatography is used as an assay to evaluate the bone-targeting potential of both individual bone-targeting moieties (“monomers”) and of pharmaceuticals incorporating bone-targeting groups.
The rentention time of the compound is expressed in terms of K=(retention time-void time)/void. This K value is corrected using two reference compounds to correct from inter-column and inter-system variation to obtain a K′ value.

K′ value (corrected retention K = (retention time-void time)/void): 3.7
Compound: NCCCC(O)(P(=O)(O)O)P(=O)(O)O [Alendronate, alendronate]
